Assay results taken from PubChem BioAssay AID485314 (National Center for Advancing Translational Sciences (NCATS), 2010).
Hit rate of the full screen: of about 340,000 compounds, about 4,500 (1.3%) were called active. The inconclusive results got no clear call from the source; some entries with a clear call stand among them for comparison. Calls come from the whole dose curve; as a rule, active = well fitted inhibition curve with a large enough effect; inconclusive = small, poorly fitted or top-dose-only effect, or another doubt; inactive = no such curve, though single readings can be large or run the other way. Potencies of inconclusive entries are doubtful fits and often do not repeat.

Molecular target: DNA polymerase beta (Homo sapiens) (UniProt P06746)
Experiment: qHTS Assay for Inhibitors of DNA Polymerase Beta
Conditions: Pol beta primer extension/strand displacement, fluorescence kinetic; activity change, negative = inhibition: at 114 µM (top of the series)
Procedure, shortened: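 Pol beta (10 nM) and compounds were preincubated 15 min at room temperature, then 50 nM substrate (final) started primer extension/strand displacement. Reads were taken at 0 and 10 min; concentration-response data were fitted to a four-parameter Hill equation.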
% is set by controls: 0 for no effect and ±100 for the full control effect; potency is the fitted concentration of half-maximal effect.

Potency, inconclusive:
CS(=O)(=O)Nc1ccc(C2=NN(C(=O)c3ccco3)C(c3ccccc3)C2)cc1 (stereo unspecified) 89.1 µM [inhibitor, single point]
COc1ccc(-c2ccccc2)cc1NC(=O)c1cccs1 31.6 µM [inhibitor, partial curve, poor fit]
NNc1nc2sc3c(c2c(=O)n1Cc1ccccc1)CCC3 7.08 µM [inhibitor, full curve, poor fit]
Cc1cc(Cl)c(OCCOCCN2CCC(C)CC2)c(Br)c1 100 µM [inhibitor, single point]
COc1cc(NS(=O)(=O)c2ccc3[nH]c4c(c3c2)CCCCCC4)cc(OC)c1 89.1 µM [inhibitor, single point]
CCc1ccc(NC(=O)C(CC)n2c(=O)c(C(F)(F)F)nc3ccccc32)cc1 (stereo unspecified) 79.4 µM [inhibitor, single point]
CC(C)OC(=O)c1ccc(COC(=O)c2cccc(-c3nnc(-c4ccccc4)o3)c2)cc1 28.2 µM [inhibitor, single point]
CCOC(=O)/C(=N\Nc1ccccc1[N+](=O)[O-])c1csc(Nc2ccccc2)n1 8.91 µM [inhibitor, partial curve, poor fit]
CCOC(=O)Cn1c(=O)c2c(nc3n2CCN3c2ccc(CC)cc2)n(C)c1=O 100 µM [inhibitor, single point]
CCOC(=O)c1ccccc1OCc1cc(/C=N/n2cnnc2)ccc1OC 39.8 µM [inhibitor, partial curve, poor fit]
COC(=O)c1ccccc1NC(=O)c1c(NC(=O)c2ccco2)sc2c1CCC(C(C)(C)C)C2 (stereo unspecified) 1.41 µM [inhibitor, single point]
COc1ccc([C@H]2Oc3cc(O)cc(O)c3C(=O)C2[C@@H]2C(=O)c3c(O)cc(O)cc3O[C@@H]2c2ccc(OC)cc2)cc1 (stereo partly specified) 79.4 µM [inhibitor, single point]
Cc1c(Cl)cccc1N/C(=N/S(=O)(=O)c1cccs1)c1ccccc1 31.6 µM [inhibitor, single point]
CCN(CC)c1ccc(NC(=O)CSc2nc(C3CC3)nc3ccccc23)cc1C 89.1 µM [inhibitor, single point]
COc1ccc(NC(=O)C(NS(=O)(=O)c2cccs2)C(C)C)cc1Cl (stereo unspecified) 89.1 µM [inhibitor, single point]
Cc1[nH]c2ccc3ccccc3c2c(=O)c1C/C=C/Cl 25.1 µM [inhibitor, full curve]
O=C(NCc1nc2ccccc2[nH]1)C1=C[C@H](c2coc3ccccc3c2=O)C[C@H](OCc2ccc(CO)cc2)O1 70.8 µM [inhibitor, single point]
O=c1cc(CN2CCN(CCO)CC2)c2cc3c(cc2o1)CCC3 5.62 µM [inhibitor, full curve, poor fit]
COc1cc(C2CC(=O)c3c(O)cc(O)cc3O2)ccc1O (stereo unspecified) 100 µM [inhibitor, single point]
O=C(O)c1ccc2c(c1)C(=O)N(c1ccc(OCc3ccccc3)cc1)C2=O 35.5 µM [inhibitor, partial curve, poor fit]
CC(=O)c1cccc(NC(=O)CSc2nc(C3CC3)nc3ccccc23)c1 50.1 µM [inhibitor, partial curve, poor fit]
COc1cccc(CNC(=O)C(=O)Nc2c3c(nn2-c2ccccc2)CSC3)c1 35.5 µM [inhibitor, single point]
O=C(O)CNC(=O)CC1S/C(=N/N=C2\CSC(=O)N2)NC1=O (stereo unspecified) 39.8 µM [inhibitor, partial curve]
CCC(Sc1nc2ccsc2c(=O)n1Cc1ccc(C(=O)O)cc1)C(=O)Nc1ccc(C)c(Cl)c1 (stereo unspecified) 39.8 µM [inhibitor, single point]
COc1ccc(F)cc1S(=O)(=O)NCCc1csc2nc(-c3cccc(C)c3)nn12 89.1 µM [inhibitor, partial curve, poor fit]
Cc1nnc2sc(-c3ccc(NC(=O)CSc4ccc(Cl)cc4)cc3)nn12 31.6 µM [inhibitor, partial curve]

2 compounds drawn at random from the list so far, as already listed:
Potency, inconclusive:
CCOC(=O)Cn1c(=O)c2c(nc3n2CCN3c2ccc(CC)cc2)n(C)c1=O 100 µM [inhibitor, single point]
COc1cccc(CNC(=O)C(=O)Nc2c3c(nn2-c2ccccc2)CSC3)c1 35.5 µM [inhibitor, single point]

Next part:

Potency, active:
Cc1ccc(-c2nc3ccccc3o2)cc1NC(=S)NC(=O)/C=C/c1ccco1 39.8 µM
C/C(N)=C(/C#N)C(=O)CSc1nc2ccccc2[nH]1 14.1 µM
CCCC(NC(=O)Cc1c(C)c2cc3c(C)c(C)oc3c(C)c2oc1=O)C(=O)N[C@@H](Cc1ccccc1)C(=O)O (stereo partly specified) 28.2 µM
O=C1NC(c2cccc(Br)c2)=N/C1=C\c1ccco1 44.7 µM
O=c1[nH]c2cc3c(cc2cc1CN(Cc1cccs1)Cc1nnnn1Cc1ccco1)OCCO3 31.6 µM
O=C1C2C(C(=O)N1/N=C/c1cc([N+](=O)[O-])c(O)cc1O)C1C=CC2C12CC2 (stereo unspecified) 11.2 µM
O=C(O)c1ccc(O)c(O)c1 25.1 µM
NC(=O)CC(NC(=O)Cc1cccc2ccccc12)c1ccc(NC2CCN(Cc3ccccc3)CC2)c([N+](=O)[O-])c1 (stereo unspecified) 50.1 µM

Potency, inactive:
CCC(Cn1nnc2ccccc2c1=O)NC(=O)Nc1ccc(C)c(C)c1 (stereo unspecified)
NC(=O)c1ccc2c(c1)S(=O)(=O)c1ccccc1C2=O
CCCN(C(=O)c1noc2c1COc1ccc(C)cc1-2)c1ccc(Cl)c(Cl)c1
COc1ccc(OC)c(-c2nnc3n(Cc4ccc(C)cc4)c(=O)c4ccccc4n23)c1
CCOC(=O)c1c(S(=O)(=O)N2CCCC(C(=O)NCc3ccc(Cl)cc3)C2)c(C)n(C)c1C (stereo unspecified)

Activity change, negative = inhibition, inconclusive:
N#C/C(=C\c1coc2ccc(O)cc2c1=O)C(=O)Nc1nc2ccccc2s1 -104% [inhibitor]
COc1ccc([C@@H]2C[C@@H](c3ccccc3)Oc3cc(OC)c(OC)c(OC)c32)cc1 -30.3% [inhibitor]
